Among the data in publication PMC10702442, “Arabidopsis thaliana Phytocystatin 6 Forms Functional Oligomer and Amyloid Fibril States” (Biochemistry, 2023) are binding values, retold here.

These are yes or no findings as the source states them, for the method shown.

In assay [1] the target is AtCYT6-CTD, the isolated C-terminal cystatin domain of AtCYT6 (Arabidopsis thaliana) (UniProt Q8H0X6). The experiment in a line: SEC; Superdex 75, 500 uL of protein at up to 2 mg/mL, 20 mM Tris pH 7.5, 50 mM NaCl, nonreducing, room temperature; both purified.
Assay [2] has the same target. The experiment in a line: cross-linking; 0.175% (w/v) glutaraldehyde, protein at 0.3 mg/mL in 20 mM citric acid pH 5.5, 100 mM NaCl, room temperature, 1, 5 and 10 min, read by SDS-PAGE; both purified.

B1: AtCYT6-CTD, the isolated C-terminal cystatin domain of AtCYT6 (domain or fragment, UniProt Q8H0X6 141-234)
chain: GEHESGWREVPGDDPEVKHVAEQAVKTIQQRSNSLFPYELLEVVHAKAEVTGEAAKYNMLLKLKRGEKEEKFKVEVHKNHEGALHLNHAEQHHD
For the molecule B1, the binding entry in assay [1] is on record as “no binding (tested: 2 mg/mL)”; in assay [2], “no binding (tested: 0.3 mg/mL)”.
